System: PFV intasome/nucleosome complex
Assay: AlphaLISA PFV intasome/nucleosome interaction assay
Assay type: binding, prototype foamy virus (PFV); human mononucleosome
Protocol: AlphaLISA is a technology particularly suitable for bimolecular inhibitor screening assays using protein-protein interactions with purified recombinant proteins. The AlphaLISA assay development was performed in 96-well 12 area Alphaplate (reference 6052340, PerkinElmer, Waltham, MA, USA) with a final reaction volume of 40 µL. Cross-titration experiments of biotinylated MN (0–50 nM) against DIG-intasome (0–100 nM) were carried out to establish optimal assay concentrations for the binding assay. Ten microliters of each protein were diluted in the binding buffer 50 mM BisTris-propane pH 7, 100 mM NaCl, 0.1% (v/v) Tween-20, 0.1% (w/v) BSA, and 1 mM dithiothreitol. The plate was incubated at RT for 2 h in rotation. Ten microliters of anti-DIG acceptor beads (PerkinElmer, reference AL113) were then added, and after 1 h of incubation at RT with rotation, 10 µL of streptavidin […] (Perkin Elmer, reference 6760002) was mixed to the wells. This established a final concentration of 20 µg/mL for each bead. The plate was then incubated for 1 h at RT in the dark before the AlphaLISA signal was detected using an EnSpire Multimode Plate Reader (PerkinElmer). Negative control with binding buffer or only with one of the complexes was used to control the assay quality. Data were analyzed with GraphPad Prism 5.01 software. To evaluate tolerance for DMSO, the assay was performed as described above with an addition of 0.15–20% (v/v) of DMSO during the binding step. For the competition experiment, increasing concentrations of untagged intasome were titrated out in the 1-nM DIG-intasome/biotinylated nucleosome interaction assay.
For the AlphaLISA screening assay with the NIH OncoSET library, the binding conditions were optimized for use in 384-well plate (Optiplate, reference 6007290, PerkinElmer) with the same concentrations for complexes and beads in a final reaction volume of 20.5 µL (2.5% DMSO final concentration). […] Any compound that causes decreased signal means that it interferes with AlphaLISA readout, and therefore, it is not relevant to this assay.

CC/C(=C(\c1ccccc1)c1ccc(OCCN(C)C)cc1)c1ccccc1 [Tamoxifen, tamoxifen]
decrease in the AS signal (OncoSET screen, 25 µM drug, 1 nM of each partner): at least 50% | IC50 (intasome/nucleosome AS assay, increasing drug concentrations, Fig. 3E): 37.1 ± 0.07 µM | decrease in the AS signal (retest at 10 µM, MN): 50–60%
